According to PubChem BioAssay AID540276 (National Center for Advancing Translational Sciences (NCATS), 2011):
About 5,400 (1.8%) of roughly 300,000 compounds were called active. Inconclusive results, whose numbers are uncertain, are shown with a selection of clear calls. The call rests on the fitted dose curve; tested in HEK293 cells. Potencies beside an inconclusive call are fits to weak or partial responses and may not hold up.

Experiment: qHTS for inhibitors of binding or entry into cells for Marburg Virus
Conditions: Marburg virus pseudotyped entry inhibition, cell reporter; activity change, negative = inhibition: at 37.8 µM (top of the series) unless noted
On the % scale 0 is the no-effect control and ±100 the full control effect; potency means the concentration at half of the fitted maximal effect.

Compound | activity change, negative = inhibition | Potency
Cc1ccccc1NC(=S)NC(=O)COc1ccccc1C | inactive: -2.55% [at 46.1 µM] | 
COc1cc(-c2cc(C(=O)Nc3ccc(S(=O)(=O)NCc4ccco4)cc3)c3ccccc3n2)cc(OC)c1OC |  | inconclusive: 1.78 µM [inhibitor, full curve]
CC(C)(C)C(=O)Nc1ccc(Cl)c(-c2nc3ccccc3[nH]2)c1 | inactive: -1.23% [at 46.1 µM] | 
O=C(Cn1c(=O)n(Cc2ccc(C(=O)NCc3ccccc3Cl)cc2)c(=O)c2ccccc21)Nc1ccc(F)cc1 | inactive: 16.2% [at 46.1 µM] | 
Cc1coc2cc3oc(=O)c(CC(=O)NCCc4ccccc4F)c(C)c3cc12 | inactive: 9.37% [at 46.1 µM] | 
O=C(Nc1ccc(S(=O)(=O)C(F)F)cc1)c1cccc(S(=O)(=O)N2CCOCC2)c1 |  | inconclusive: 17.8 µM [inhibitor, single point]
Cc1csc(NC(=O)CSc2ccc(-c3ccc(F)cc3)nn2)n1 |  | inconclusive: 35.5 µM [inhibitor, single point]
COC(=O)[C@H](COC(C)(C)C)NC(=O)O[C@@H]1C(=O)c2cc(Br)ccc2O[C@H]1c1ccc2c(c1)OCO2 |  | inconclusive: 6.68 µM [inhibitor, single point]
COc1ccc(NC(=O)Cn2nnc(-c3ccccc3F)n2)cc1 |  | inconclusive: 2.82 µM [activator, partial curve, poor fit]
Cc1ccccc1C(=O)c1ccc2c(c1)n(C)c(=O)n2C |  | inconclusive: 0.73 µM [inhibitor, single point]
CCOc1ccc2nc(Cl)c(C3CC(c4ccc(C)cc4)=NN3C(=O)CCCC(=O)O)cc2c1 (stereo not drawn) | inactive: -11% [at 46.1 µM] | 
O=C(COc1ccc([N+](=O)[O-])cc1)NC(=O)NC1CCS(=O)(=O)C1 (stereo not drawn) | inactive: 11.2% | 
COc1ccc(/C=C/C(=O)c2c(C)cc(C)[nH]c2=O)c2ccccc12 |  | inconclusive: 31.6 µM [inhibitor, partial curve, poor fit]
Cc1ccc(S(=O)(=O)Oc2ccccc2/C=C2\SC(=O)NC2=O)cc1 | inactive: -11.8% [at 46.1 µM] | 
CN(C)CCN(C)Cc1ccccc1Sc1cccc2ccccc12 |  | inconclusive: 20.6 µM [inhibitor, single point]
O=C(COC(=O)C1=Cc2ccccc2OC1)NC1CCCC1 | inactive: 2.02% | 
Cc1cccc(N2Cc3ccccc3C2=NC(=O)c2ccc(Cl)nc2)c1 |  | inconclusive: 18.4 µM [activator, partial curve]
COC(=O)c1c(NC(=O)c2ccc([N+](=O)[O-])o2)sc2c1CCN(C(C)C)C2 |  | inconclusive: 17.8 µM [inhibitor, partial curve, poor fit]
CCc1ccc(NC(=O)CSCCO)cc1 |  | inconclusive: 4.11 µM [activator, partial curve, poor fit]
CCCC(C(=O)NC1CCCC1)N(C(=O)Cn1nnc(-c2ccc(C)o2)n1)C1CCCC1 (stereo not drawn) |  | active: 25.9 µM
COc1cccc(-c2nnn(CC(=O)N3CCCCC3)n2)c1 |  | inconclusive: 5.62 µM [activator, single point]
CN(C)c1nc(-c2ccccc2)nc(-c2ccc(Cl)cc2)c1C#N | inactive: 0.277% | 

3 compounds from above, arranged by heavy-atom count, rising.
Compound | activity change, negative = inhibition | Potency
Cc1ccccc1NC(=S)NC(=O)COc1ccccc1C | inactive: -2.55% [at 46.1 µM] | 
CC(C)(C)C(=O)Nc1ccc(Cl)c(-c2nc3ccccc3[nH]2)c1 | inactive: -1.23% [at 46.1 µM] | 
Cc1csc(NC(=O)CSc2ccc(-c3ccc(F)cc3)nn2)n1 |  | inconclusive: 35.5 µM [inhibitor, single point]

(continued)

Compound | activity change, negative = inhibition | Potency
NC(=O)CSc1nnc(COc2ccccc2)n1C1CCCCC1 |  | inconclusive: 29.1 µM [inhibitor, single point]
COc1ccc(-n2c(CNc3ccc(C)cc3)nnc2SCc2ccccc2)cc1 |  | inconclusive: 0.282 µM [activator, partial curve, poor fit]
CC(=O)NC1=C(NC2CCS(=O)(=O)C2)C(=O)c2ccccc2C1=O (stereo not drawn) |  | inconclusive: 7.08 µM [inhibitor, partial curve]
COC(=O)c1ccc(OCC(=O)c2ccccc2)cc1 |  | inconclusive: 35.5 µM [inhibitor, single point]
CCc1ccc(OCC(=O)NCC(c2ccc(Cl)cc2)N2CCCCC2)cc1 (stereo not drawn) |  | inconclusive: 35.5 µM [inhibitor, single point]
CC(C)c1ccc(CNc2cc(N3CCCC3)ccc2[N+](=O)[O-])cc1 |  | inconclusive: 29.1 µM [inhibitor, single point]
Cc1ccccc1C(=O)NNC(=O)CCc1ccccc1 | inactive: -8.85% [at 46.1 µM] | 
Cc1ccc(C)c(CN2C(=O)CSc3ccc(C(=O)NCCN4CCOCC4)cc32)c1 |  | inconclusive: 25.1 µM [inhibitor, single point]
Cc1ccc(-c2csc(NC(=O)c3cccs3)n2)cc1 |  | inconclusive: 35.5 µM [inhibitor, single point]
Cc1cc(N2CCCCCC2)nc(-c2ccccc2O)n1 |  | inconclusive: 22.4 µM [inhibitor, single point]
COc1ccccc1C(=O)COC(=O)COc1cccc2c1OC(C)(C)C2 | inactive: 3.79% | 
CCc1cc2c(=O)c(-c3nc4ccccc4n3C)c(C(C)C)oc2c(CN2CCN(C)CC2)c1O |  | inconclusive: 18.3 µM [inhibitor, single point]
CC(C)Oc1ccc(/C=C(/NC(=O)c2ccccc2)C(=O)NC(Cc2ccccc2)C(=O)O)cc1 (stereo not drawn) | inactive: -10.7% [at 46.1 µM] | 
Cc1ccc(/C=C/C(=O)NCCCN2CCN(CCCNC(=O)/C=C/c3ccc(C)cc3)CC2)cc1 |  | inconclusive: 25.1 µM [activator, single point]
CCOC(=O)C1(CCOC)CCN(Cc2ccc(C3CCCCO3)s2)CC1 (stereo not drawn) |  | inconclusive: 35.5 µM [inhibitor, single point]
COc1ccc(-c2csc(N(CC(C)C)C(=O)c3ccco3)n2)cc1 |  | inconclusive: 25.1 µM [inhibitor, single point]
O=C(N/C(=C/c1ccc2c(c1)OCO2)C(=O)N1CCOCC1)c1cccs1 | inactive: 7.58% | 
COc1ccc(/C=C2\SC(=O)N(CCC(=O)N3CCCCC3)C2=O)cc1OC |  | inconclusive: 15.8 µM [activator, single point]
COc1cc(OC)cc(-c2nnc(SCc3c(F)cccc3Cl)o2)c1 | inactive: 5.27% | 
O=C(c1cc[n+]([O-])cc1)N1CCc2c([nH]c3ccccc23)C1c1ccccc1Cl (stereo not drawn) |  | inconclusive: 8.91 µM [inhibitor, single point]
CCOC(=O)c1[nH]c2ccccc2c1NC(=O)c1cc(Cl)ccc1Cl |  | inconclusive: 12.6 µM [activator, single point]
